# According to PubChem BioAssay AID493014 (National Center for Advancing Translational Sciences (NCATS), 2011):
# The campaign covered roughly 340,000 compounds. About 170 (0.05%) were called active. The shares of active, inactive and inconclusive entries below differ from those in the screen. The call rests on the fitted dose curve; in most records, active means well fitted inhibition curve with a large enough effect in the signal ratio, with a control signal flat (not every such curve was filed as active); inconclusive means small, poorly fitted or top-dose-only effect, or effect the other way, or a change in a side signal; inactive means flat fitted curve, though single readings scatter; the % refers to the signal ratio. Potencies of inconclusive entries are doubtful fits and often do not repeat.
# Assay: qHTS Assay to Find Inhibitors of Chronic Active B-Cell Receptor Signaling;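 on activity change, negative = inhibition: plate controls were basal doxycycline-induced cells for no effect and cells given 10 µM MG132 for full effect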
# Conditions: ABC-DLBCL IkBa-CBG/CBR reporter, luminescence ratio (green luciferase fused to IkBa over red control in TMD8 lymphoma cells), 4 h; activity change, negative = inhibition: at 46.1 µM (top of the series)
# In short: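 TMD8 human ABC-DLBCL cells with doxycycline-inducible IκBα–green luciferase fusion and unfused red luciferase, in 0.5% FBS medium; compounds up to 46 uM, 4 h at 37C. Green/red luminescence ratio, filter-overlap corrected, fitted to concentration-response curves.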
# Potency means the concentration at half of the fitted maximal effect.
Compound,"activity change, negative = inhibition",Potency
CN(C)C(=O)C(CCN1CCC(O)(c2ccc(Cl)cc2)CC1)(c1ccccc1)c1ccccc1,inconclusive: 19.9%,–
COc1ccccc1NC(=O)Cc1noc(CSc2cc(C)c3ccccc3n2)n1,inconclusive: -8.67%,–
COc1ccccc1/C=C/C1(C(=O)NC2CCCC2)CC(=O)N1c1ccc(F)cc1 (stereo not given),inconclusive: -6.07%,–
COC(=O)CN=Cc1c(C)[nH]n(-c2ccccc2)c1=O,inactive,–
O=C(Nc1ccc(Cl)cc1)Nc1nc(-c2ccccc2)cs1,inconclusive: 26.7%,–
CN(c1ccccc1)S(=O)(=O)c1cccc(NC(=O)Cc2c(F)cccc2Cl)c1,inconclusive: -25.3%,–
CN(C)c1ccnc2sc(C(=O)c3ccc(Br)cc3)c(N)c12,inactive,–
COc1ccc(N2CCN(CC(O)COc3ccc(F)cc3)CC2)cc1 (stereo not given),inconclusive: 1.54%,–
COc1ccc(-c2ccc3c(c2)S(=O)(=O)c2cccc(C(=O)N4CCN(C5CCCCC5)CC4)c2C3=O)cc1OC,inactive,–
COC(=O)c1ccc(COc2ccc(Cl)cc2)o1,inconclusive: 6.93%,–
Cc1cccc(N2CC(C(=O)O)CC2=O)c1 (stereo not given),inconclusive: -6.22%,–
CCOC(=O)N1CCN(C(=O)c2ccc(Cn3c(=S)[nH]c4cc(C(=O)OC)ccc4c3=O)cc2)CC1,–,"inconclusive: 20 µM [falling, partial curve, poor fit]"
O=C1NN=C(c2ccc(Cl)cc2)CC1c1c[nH]c2ccccc12 (stereo not given),–,"inconclusive: 15.8 µM [falling, partial curve]"
CCc1nc(Nc2ccccc2F)c2oc3ccccc3c2n1,–,"inconclusive: 14.1 µM [falling, partial curve]"
O=C(N/N=C/c1cccs1)c1c[nH]c2ccccc12,–,"inconclusive: 6.51 µM [falling, single point]"
COc1ccc(OC)c(NC(=O)CCN2CCN(C)CC2)c1,inactive,–
CCOC(=O)c1cc(-c2cccc(C(F)(F)F)c2)nc2nc(SC)[nH]c(=O)c12,inconclusive: 6.85%,–
Cc1nc2sc(C)c(C)c2c(=O)o1,–,"inconclusive: 5.17 µM [falling, partial curve, poor fit]"
CCN(CC)S(=O)(=O)c1ccc2c(c1)N(CC(=O)NCCCN1CCN(c3cc(C)ccc3C)CC1)C(=O)CO2,inconclusive: 2.1%,–
CC(=O)Nc1ccc(S(=O)(=O)N2CCC(c3nc4c(nnn4Cc4ccccc4Cl)c(=O)[nH]3)CC2)cc1,inconclusive: -16.5%,–
Cc1cc(C)c2c(N)c(C(=O)N/N=C/c3cccs3)sc2n1,inconclusive: -10.4%,–
COc1cc([N+](=O)[O-])cc(/C=N/NC(=O)c2cc(-c3ccccc3)nc3ccccc23)c1O,–,"inconclusive: 5.62 µM [falling, single point]"
OC(COCc1ccco1)CN1CCN(C(c2ccccc2)c2ccccc2)CC1 (stereo not given),inactive,–
COc1ccccc1OCc1ccc(C(=O)Nc2ccccc2F)cc1,–,"inconclusive: 20.6 µM [falling, partial curve]"
O=C1N(c2ccccc2)C2CS(=O)(=O)CC2N1c1ccc(Cl)c(Cl)c1 (stereo not given),inconclusive: -0.274%,–

Compound,"activity change, negative = inhibition",Potency
COc1cccc(N(CC(=O)NCCN2CCOCC2)S(=O)(=O)c2ccccc2)c1,inactive,–
CC(C)CC1CC(=O)OC1(C)C(=O)CSc1nc2ccccc2s1 (stereo not given),inconclusive: 17.5%,–
CCCN1C(=O)C2(C(C(=O)c3ccc(C)o3)=C(O)C(=O)N2CCCOC)c2ccccc21 (stereo not given),inconclusive: 10.3%,–
COc1cc(/C=C(\C#N)C(=O)NC2CCCCC2C)ccc1OS(=O)(=O)c1ccc(C)cc1 (stereo not given),inconclusive: -26.1%,–
COc1cc(/C=C/C(=O)Nc2ccc(OC)c(S(=O)(=O)N3CCOCC3)c2)ccc1OC(F)F,–,"inconclusive: 25.9 µM [falling, single point]"
CCOC(=O)c1csc(Nc2nc3ccc(F)cc3s2)n1,inconclusive: 11.4%,–
COc1ccc(/C=N/NC(=O)c2ccc(Br)cc2)cc1CN1CCOCC1,inactive,–
COc1ccc(N2CCN(C(=O)c3cc4cc(Cl)ccc4[nH]3)CC2)cc1,inconclusive: -11%,–
O=C(Oc1ccc(Br)cc1)c1cccnc1,inconclusive: 3.73%,–
CCN(CC)CCCNc1nc(N)c([N+](=O)[O-])c(NCCO)n1,inconclusive: -3.28%,–
Cc1cccn2c(=O)nc(SCC(=O)c3ccccc3)nc12,–,"inconclusive: 1.46 µM [falling, partial curve, poor fit]"
CC(=O)Nc1ccc(Cc2nc3c([nH]2)c(=O)n(C)c(=O)n3C)cc1,inconclusive: 0.859%,–
[S-]C(=Nc1ccc(Cl)cc1)N[n+]1ccccc1,inconclusive: 8%,–
O=C(O)c1ccccc1COc1ccccc1Cl,–,"inconclusive: 32.6 µM [rising, partial curve, poor fit]"
OCCN1CCN(c2ncnc3ccc(Br)cc23)CC1,–,"inconclusive: 35.5 µM [falling, single point]"
O=C(c1cccnc1)N1CCC(Oc2ccc(C(=O)N3CCCCO3)cc2)CC1,inconclusive: -1.1%,–
CC(C)CN1CCC(=O)N([C@H](CN=[N+]=[N-])Cc2ccccc2)CC1,–,"inconclusive: 5.01 µM [falling, partial curve]"
COc1ccc(OC)c(/C=C2\S/C(=N/NC(=O)c3ccc4ccccc4c3)NC2=O)c1,inconclusive: 8.21%,–
Cc1ccc(C)c(-c2nnc(NC(=O)CS(=O)(=O)c3ccccc3)o2)c1,–,"inconclusive: 29.1 µM [falling, single point]"
O=C(Cc1ccc(-c2ccccc2)cc1)OCC(=O)N1CCCC1=O,–,"inconclusive: 15.8 µM [falling, partial curve]"
Cc1cc(N(C)C)c(C#N)c(N2CCCCC2)n1,inconclusive: 5.69%,–
CC(C)OCCCn1c(=S)[nH]c2cc3c(cc2c1=O)OCO3,inactive,–
CCOC(=O)C1(CCCc2ccccc2)CCN(C(=O)Cn2nc(C)nc2C)CC1,inactive,–
O=C(Nc1ccccc1OC(F)F)c1ccccc1,inconclusive: 5.65%,–
Cc1sc2ncnc(SCC(=O)N3CCCC(C(F)(F)F)C3)c2c1C (stereo not given),inactive,–

# Entries listed so far that have a Cl atom:
Compound,"activity change, negative = inhibition",Potency
CN(C)C(=O)C(CCN1CCC(O)(c2ccc(Cl)cc2)CC1)(c1ccccc1)c1ccccc1,inconclusive: 19.9%,–
O=C(Nc1ccc(Cl)cc1)Nc1nc(-c2ccccc2)cs1,inconclusive: 26.7%,–
CN(c1ccccc1)S(=O)(=O)c1cccc(NC(=O)Cc2c(F)cccc2Cl)c1,inconclusive: -25.3%,–
COC(=O)c1ccc(COc2ccc(Cl)cc2)o1,inconclusive: 6.93%,–
O=C1NN=C(c2ccc(Cl)cc2)CC1c1c[nH]c2ccccc12 (stereo not given),–,"inconclusive: 15.8 µM [falling, partial curve]"
CC(=O)Nc1ccc(S(=O)(=O)N2CCC(c3nc4c(nnn4Cc4ccccc4Cl)c(=O)[nH]3)CC2)cc1,inconclusive: -16.5%,–
O=C1N(c2ccccc2)C2CS(=O)(=O)CC2N1c1ccc(Cl)c(Cl)c1 (stereo not given),inconclusive: -0.274%,–
COc1ccc(N2CCN(C(=O)c3cc4cc(Cl)ccc4[nH]3)CC2)cc1,inconclusive: -11%,–
[S-]C(=Nc1ccc(Cl)cc1)N[n+]1ccccc1,inconclusive: 8%,–
O=C(O)c1ccccc1COc1ccccc1Cl,–,"inconclusive: 32.6 µM [rising, partial curve, poor fit]"
